The text below walks through data of PMC11564821.

By UniProt entry, the sequences of proteins in these tests, tags left out.
UniProt P19474: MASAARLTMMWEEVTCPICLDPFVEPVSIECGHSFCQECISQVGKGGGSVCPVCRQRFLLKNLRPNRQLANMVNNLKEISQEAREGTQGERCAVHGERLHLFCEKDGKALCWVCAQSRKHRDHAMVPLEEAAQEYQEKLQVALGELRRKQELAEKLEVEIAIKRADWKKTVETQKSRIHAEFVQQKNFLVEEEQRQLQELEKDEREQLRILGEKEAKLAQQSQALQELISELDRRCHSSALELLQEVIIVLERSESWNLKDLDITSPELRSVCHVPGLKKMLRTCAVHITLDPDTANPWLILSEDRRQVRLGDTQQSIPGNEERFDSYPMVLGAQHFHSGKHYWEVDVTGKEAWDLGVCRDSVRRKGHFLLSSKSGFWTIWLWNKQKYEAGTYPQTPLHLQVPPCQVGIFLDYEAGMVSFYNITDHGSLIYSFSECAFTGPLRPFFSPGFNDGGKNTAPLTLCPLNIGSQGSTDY

Results are given in words; binding and its absence hold for the method and conditions named. Binding seen in cells or lysates may run through a third protein. Some results given as binding are weak or reduced against the parent protein; the word gives no strength. Sequences can lack the tags named with a protein.

The target of this experiment is Myc-TRIM21 (overexpressed in HEK293T) (UniProt P19474). Description: co-IP; two tagged proteins overexpressed together in HEK293T, each in turn immunoprecipitated by its tag; lysate supernatant with beads at 4 °C overnight, five washes with lysis buffer, immunoblot. On the technique in general: In western blotting, separated proteins are transferred to a membrane and probed.

B1: HA-MDM4 (overexpressed in HEK293T) (protein, UniProt O15151 1-490)
chain: MTSFSTSAQCSTSDSACRISPGQINQVRPKLPLLKILHAAGAQGEMFTVKEVMHYLGQYIMVKQLYDQQEQHMVYCGGDLLGELLGRQSFSVKDPSPLYDMLRKNLVTLATATTDAAQTLALAQDHSMDIPSQDQLKQSAEESSTSRKRTTEDDIPTLPTSEHKCIHSREDEDLIENLAQDETSRLDLGFEEWDVAGLPWWFLGNLRSNYTPRSNGSTDLQTNQDVGTAIVSDTTDDLWFLNESVSEQLGVGIKVEAADTEQTSEEVGKVSDKKVIEVGKNDDLEDSKSLSDDTDVEVTSEDEWQCTECKKFNSPSKRYCFRCWALRKDWYSDCSKLTHSLSTSDITAIPEKENEGNDVPDCRRTISAPVVRPKDAYIKKENSKLFDPCNSVEFLDLAHSSESQETISSMGEQLDNLSEQRTDTENMEDCQNLLKPCSLCEKRPRDGNIIHGRTGHLVTCFHCARRLKKAGASCPICKKEIQLVIKVFIA
Turning to B1, the binding result is on record as “binds”.
